# Reference: the supplement of paper PMC8728848
# Some of the results follow.
# B1: EUL D1A second (Oryza sativa) (protein)
# chain: GAATACTIGGVPVHTVRVFSAAGEDYCLTVRNGTACLAPKNPRDDYQHWIKDMRHSNKIRDEEGYPAFALVNKVTGEAIKHSTGQGHPVKLVPYNPEYQDESVLWTESKDVGKGFRCIRMVNNIYLNFDAFHGDKDHGGIHDGTEIVLWKWCEGDNQRWKILPWILEQKLISEEDLNSAVDHHHHHH
# Columns and labels:
# Experiment in all cases: glycan array binding signal (z-score within array); higher = stronger binding
# Details in all cases: glycan notation: IUPAC condensed, linker removed
# [1] = target: Neu5Ac(a2-8)Neu5Ac
# Outline: (§1)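 The Consortium for Functional Glycomics database supplied 3228 glycan arrays, of which those lacking an available protein sequence were dropped. The binding signal, a within-array Z-score, was averaged across arrays of the same protein sequence and across linkers. Negative scores can be read as non-binding.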
# [2] = target: Neu5Ac(a2-8)Neu5Ac(a2-3)Gal(b1-3)GalNAc(b1-4)[Neu5Ac(a2-3)]Gal(b1-4)Glc
# Outline: as §1
# [3] = target: Neu5Ac(a2-8)Neu5Ac(a2-3)Gal(b1-3)GalNAc(b1-4)[Neu5Ac(a2-8)Neu5Ac(a2-3)]Gal(b1-4)Glc
# Outline: as §1
# [4] = target: Neu5Ac(a2-8)Neu5Ac(a2-3)Gal(b1-4)Glc
# Outline: as §1
# [5] = target: Neu5Ac(a2-8)Neu5Ac(a2-3)Gal(b1-4)GlcNAc
# Outline: as §1
# [6] = target: Neu5Ac(a2-8)Neu5Ac(a2-3)[Gal(b1-3)GalNAc(b1-4)]Gal(b1-4)Glc
# Outline: as §1
# [7] = target: Neu5Ac(a2-8)Neu5Ac(a2-3)[GalNAc(b1-4)]Gal(b1-4)Glc
# Outline: as §1
# [8] = target: Neu5Ac(a2-8)Neu5Ac(a2-8)Neu5Ac
# Outline: as §1
# [9] = target: Neu5Ac(a2-8)Neu5Ac(a2-8)Neu5Ac(a2-3)Gal(b1-4)Glc
# Outline: as §1
# [10] = target: Neu5Ac(a2-8)Neu5Ac(a2-8)Neu5Ac(a2-3)[Gal(b1-3)GalNAc(b1-4)]Gal(b1-4)Glc
# Outline: as §1
# [11] = target: Neu5Ac(a2-8)Neu5Ac(a2-8)Neu5Ac(a2-3)[GalNAc(b1-4)]Gal(b1-4)Glc
# Outline: as §1
# [12] = target: Neu5Ac(a2-8)Neu5Ac(a2-8)Neu5Ac(a2-8)Neu5Ac(a2-3)[GalNAc(b1-4)]Gal(b1-4)Glc
# Outline: as §1
# [13] = target: Neu5Ac(a2-8)Neu5Gc(a2-3)Gal(b1-4)GlcNAc
# Outline: as §1
# [14] = target: Neu5Ac(b2-6)Gal(b1-4)GlcNAc
# Outline: as §1
# [15] = target: Neu5Ac(b2-6)GalNAc
# Outline: as §1
# [16] = target: Neu5Ac9Ac(a2-3)Gal(b1-3)GlcNAc
# Outline: as §1
# [17] = target: Neu5Ac9Ac(a2-3)Gal(b1-4)GlcNAc
# Outline: as §1
# [18] = target: Neu5Ac9Ac(a2-6)Gal(b1-4)GlcNAc
# Outline: as §1
# [19] = target: Neu5Gc(a2-3)Gal(b1-3)GlcNAc
# Outline: as §1
# [20] = target: Neu5Gc(a2-3)Gal(b1-3)[Fuc(a1-4)]GlcNAc
# Outline: as §1
# [21] = target: Neu5Gc(a2-3)Gal(b1-4)Glc
# Outline: as §1
# [22] = target: Neu5Gc(a2-3)Gal(b1-4)GlcNAc
# Outline: as §1
# [23] = target: Neu5Gc(a2-3)Gal(b1-4)GlcNAc(b1-3)Gal(b1-4)GlcNAc(b1-2)Man(a1-3)[Neu5Gc(a2-3)Gal(b1-4)GlcNAc(b1-3)Gal(b1-4)GlcNAc(b1-2)Man(a1-6)]Man(b1-4)GlcNAc(b1-4)GlcNAc
# Outline: as §1
# [24] = target: Neu5Gc(a2-3)Gal(b1-4)[Fuc(a1-3)]GlcNAc
# Outline: as §1
# [25] = target: Neu5Gc(a2-6)Gal(b1-4)GlcNAc
# Outline: as §1
# [26] = target: Neu5Gc(a2-6)GalNAc
# Outline: as §1
# [27] = target: Neu5Gc(a2-8)Neu5Ac(a2-3)Gal(b1-4)GlcNAc
# Outline: as §1
# [28] = target: Neu5Gc(a2-8)Neu5Gc(a2-3)Gal(b1-4)GlcNAc
# Outline: as §1
# [29] = target: Neu5Gc(a2-8)Neu5Gc(a2-3)Gal(b1-4)GlcNAc(b1-3)Gal(b1-4)GlcNAc
# Outline: as §1
# [30] = target: Neu5Gc(a2-8)Neu5Gc(a2-6)Gal(b1-4)GlcNAc
# Outline: as §1
# [31] = target: Neu5Gc(b2-6)Gal(b1-4)GlcNAc
# Outline: as §1
binder,measurement,setting,value
B1,glycan array binding signal (z-score),[1],-0.158
same,glycan array binding signal (z-score),[2],-0.223
same,glycan array binding signal (z-score),[3],-0.35
same,glycan array binding signal (z-score),[4],-1.8
same,glycan array binding signal (z-score),[5],0.14
same,glycan array binding signal (z-score),[6],-1.57
same,glycan array binding signal (z-score),[7],0.083
same,glycan array binding signal (z-score),[8],0.501
same,glycan array binding signal (z-score),[9],1.46
same,glycan array binding signal (z-score),[10],0.664
same,glycan array binding signal (z-score),[11],0.205
same,glycan array binding signal (z-score),[12],0.722
same,glycan array binding signal (z-score),[13],-0.715
same,glycan array binding signal (z-score),[14],-1.19
same,glycan array binding signal (z-score),[15],-0.496
same,glycan array binding signal (z-score),[16],-0.82
same,glycan array binding signal (z-score),[17],-1.29
same,glycan array binding signal (z-score),[18],0.22
same,glycan array binding signal (z-score),[19],-1.91
same,glycan array binding signal (z-score),[20],0.128
same,glycan array binding signal (z-score),[21],0.509
same,glycan array binding signal (z-score),[22],1.04
same,glycan array binding signal (z-score),[23],-1.53
same,glycan array binding signal (z-score),[24],1.36
same,glycan array binding signal (z-score),[25],-1.13
same,glycan array binding signal (z-score),[26],0.72
same,glycan array binding signal (z-score),[27],-0.225
same,glycan array binding signal (z-score),[28],-1.4
same,glycan array binding signal (z-score),[29],1
same,glycan array binding signal (z-score),[30],-0.554
same,glycan array binding signal (z-score),[31],0.542

# Shown with bars between the fields: entries from further up
binder | measurement | setting | value
B1 | glycan array binding signal (z-score) | [2] | -0.223
same | glycan array binding signal (z-score) | [9] | 1.46
same | glycan array binding signal (z-score) | [16] | -0.82
same | glycan array binding signal (z-score) | [17] | -1.29
same | glycan array binding signal (z-score) | [21] | 0.509
